Test results reported in paper PMC8419706.

Chains of the proteins cited; added tags and fusions are not shown.
UniProt Q99961: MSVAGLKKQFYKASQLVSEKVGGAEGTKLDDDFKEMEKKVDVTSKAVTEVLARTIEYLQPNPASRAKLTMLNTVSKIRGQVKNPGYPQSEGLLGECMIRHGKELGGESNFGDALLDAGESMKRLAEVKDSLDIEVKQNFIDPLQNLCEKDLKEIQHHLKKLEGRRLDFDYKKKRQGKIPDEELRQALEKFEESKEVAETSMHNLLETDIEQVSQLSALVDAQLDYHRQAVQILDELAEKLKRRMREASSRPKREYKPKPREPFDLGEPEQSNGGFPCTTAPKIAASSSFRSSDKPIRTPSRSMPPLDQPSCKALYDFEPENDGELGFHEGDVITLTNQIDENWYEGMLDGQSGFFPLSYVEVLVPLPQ
UniProt P62993: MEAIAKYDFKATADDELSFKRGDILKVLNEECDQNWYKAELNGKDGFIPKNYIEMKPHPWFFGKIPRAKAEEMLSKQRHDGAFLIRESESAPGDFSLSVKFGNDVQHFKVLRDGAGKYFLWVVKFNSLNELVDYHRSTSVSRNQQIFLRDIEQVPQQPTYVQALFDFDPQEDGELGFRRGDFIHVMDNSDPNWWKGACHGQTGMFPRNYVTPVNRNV

Molecular target: BioID2-tagged endophilin A2 (SH3GL1-BioID2-HA) (UniProt Q99961)
Test: proximity labelling; BioID2: stable Ramos cells with SH3GL1-BioID2-HA, anti-IgM-stimulated, 1 uM biotin for 14 h, RIPA lysis, biotinylated proteins pulled down on Dynabeads Streptavidin C1, mass spectrometry (MaxQuant LFQ), compared with the empty-BioID2-HA control; 2 independent experiments

binding: binds
Substance: GRB2 (from UniProt P62993 1-217)

No constants are given. Whether binding was seen depends on the method and setting. Binding seen in cells or lysates may run through a third protein. A yes stands for co-enrichment or nearness to the bait. Other partners may have been found.
